Results from patent US20190336657A1, “DRUG DELIVERY SYSTEM AND METHOD OF MANUFACTURING THEREOF” (Exogenesis Corporation, priority 2011, published 2019).
Several values for one entry are separate records, joined by “and”; a condition that tells them apart may be missing. Equal entries are not always repeated. At least one structure is not confirmed: it was looked up by name or label, or the drawing left a doubt.

Legend:
[1] = Elution of drug from coated silicon coupons into human plasma (weight loss); type: physicochemical; settings: 4.5 hours in human plasma
[2] = Weight of drug lost during Neutral Beam irradiation of coated coupons; type: physicochemical; settings: each Neutral Beam irradiated coupon; by weight before and after irradiation
[3] = Control Group, no irradiation, individual coupons
[4] = Control Group, no irradiation, mean of coupons
[5] = Group 1, Neutral Beam 5 × 10^14, 30 kV, mean of coupons
[6] = Group 1, Neutral Beam 5 × 10^14 dose equivalent, VAcc 30 kV, individual coupons
[7] = Group 2, Neutral Beam 1 × 10^14, 30 kV, mean of coupons
[8] = Group 2, Neutral Beam 1 × 10^14 dose equivalent, VAcc 30 kV, individual coupons
[9] = Group 3, Neutral Beam 5 × 10^14, 25 kV, mean of coupons
[10] = Group 3, Neutral Beam 5 × 10^14 dose equivalent, VAcc 25 kV, individual coupons

For `CO[C@H]1C[C@@H]2CC[C@@H](C)[C@@](O)(O2)C(=O)C(=O)N2CCCC[C@H]2C(=O)O[C@H]([C@H](C)C[C@@H]2CC[C@@H](O)[C@H](OC)C2)CC(=O)[C@H](C)/C=C(\C)[C@@H](O)[C@@H](OC)C(=O)[C@H](C)C[C@H](C)/C=C/C=C/C=C/1C` [Rapamycin], the “Elution Loss” value [1, 3] was 55 µg and 61 µg and 72 µg and 60 µg, the “Elution Loss %” value [1, 3] was 63% and 69% and 75% and 72% and the “Elution Loss %, Mean” value [1, 4] was 70%. For the same compound, the “Elution Loss, Mean” value [1, 4] was 62 µg, the “Elution Loss %, Mean” value [1, 5] was 5% and the “Elution Loss, Mean” value [1, 5] was 4 µg. For the same compound, the “Elution Loss” value [1, 6] was 7 µg and 2 µg and 4 µg, the “Elution Loss %” value [1, 6] was 7% and 2% and 5% and the “Elution Loss, Mean” value [1, 7] was 17 µg. For the same compound, the “Loss %, Mean” value [1, 7] was 19%, the “Elution Loss” value [1, 8] was 16 µg and 35 µg and 7 µg and 10 µg and the Loss % [1, 8] was 16% and 43% and 8% and 11%. For the same compound, the “Elution Loss %, Mean” value [1, 9] was 3%, the “Elution Loss, Mean” value [1, 9] was 2 µg and the “Elution Loss” value [1, 10] was 5 µg and 1 µg and 3 µg. The “Elution Loss %” value [1, 10] was 6% and 1% and 4% and 0% and the “drug loss during irradiation” value [2] was “negligible”.
